No constants are given. Whether binding was seen depends on the method and setting.
Molecular target: T1, recombinant C-terminal domain of wild-type human μ4 (residues 160-453) (human) (UniProt O00189)
T1 sequence: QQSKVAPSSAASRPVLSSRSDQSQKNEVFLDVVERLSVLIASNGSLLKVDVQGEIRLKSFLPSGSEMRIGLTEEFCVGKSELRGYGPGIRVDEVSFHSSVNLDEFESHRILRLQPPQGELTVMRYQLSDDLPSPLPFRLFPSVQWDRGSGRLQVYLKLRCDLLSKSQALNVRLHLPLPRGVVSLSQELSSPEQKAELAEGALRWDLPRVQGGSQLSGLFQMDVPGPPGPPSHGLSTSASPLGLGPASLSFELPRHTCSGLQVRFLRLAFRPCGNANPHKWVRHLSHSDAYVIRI
Experiment: condition: peptide 2.5–5.0 mM into 250–500 µM μ4 construct; ITC; 28°C, 50 mM Tris-HCl pH 7.4, 150 mM NaCl; chamber 250–500 µM μ4 construct, peptide 2.5–5.0 mM in 16 injections; one-site model; both purified

Binder | binding
SDYQRL [TGN38 peptide SDYQRL] | no binding
SGYEVM [CD63 peptide SGYEVM] | no binding
